The values are deposited in ChEMBL (CHEMBL3988442, “University of Dundee, Small-Polar-MMV Screening Library” (2021)).

The chains behind the UniProt entries cited, without tags or fusion partners.
UniProt P9WPC5, whole entry: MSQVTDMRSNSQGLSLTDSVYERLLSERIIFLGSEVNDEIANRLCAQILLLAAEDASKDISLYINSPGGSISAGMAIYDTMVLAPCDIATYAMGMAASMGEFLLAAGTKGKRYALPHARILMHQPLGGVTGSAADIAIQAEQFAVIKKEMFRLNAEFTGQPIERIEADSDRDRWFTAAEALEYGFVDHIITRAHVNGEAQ
UniProt P9WPC3, whole entry partner: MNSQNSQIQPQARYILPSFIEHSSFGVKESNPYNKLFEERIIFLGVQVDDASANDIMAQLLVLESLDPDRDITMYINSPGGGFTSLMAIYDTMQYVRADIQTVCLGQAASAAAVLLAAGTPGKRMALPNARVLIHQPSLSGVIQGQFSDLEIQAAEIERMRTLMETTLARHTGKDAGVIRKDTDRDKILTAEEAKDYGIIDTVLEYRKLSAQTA
UniProt I6X8D2, whole entry: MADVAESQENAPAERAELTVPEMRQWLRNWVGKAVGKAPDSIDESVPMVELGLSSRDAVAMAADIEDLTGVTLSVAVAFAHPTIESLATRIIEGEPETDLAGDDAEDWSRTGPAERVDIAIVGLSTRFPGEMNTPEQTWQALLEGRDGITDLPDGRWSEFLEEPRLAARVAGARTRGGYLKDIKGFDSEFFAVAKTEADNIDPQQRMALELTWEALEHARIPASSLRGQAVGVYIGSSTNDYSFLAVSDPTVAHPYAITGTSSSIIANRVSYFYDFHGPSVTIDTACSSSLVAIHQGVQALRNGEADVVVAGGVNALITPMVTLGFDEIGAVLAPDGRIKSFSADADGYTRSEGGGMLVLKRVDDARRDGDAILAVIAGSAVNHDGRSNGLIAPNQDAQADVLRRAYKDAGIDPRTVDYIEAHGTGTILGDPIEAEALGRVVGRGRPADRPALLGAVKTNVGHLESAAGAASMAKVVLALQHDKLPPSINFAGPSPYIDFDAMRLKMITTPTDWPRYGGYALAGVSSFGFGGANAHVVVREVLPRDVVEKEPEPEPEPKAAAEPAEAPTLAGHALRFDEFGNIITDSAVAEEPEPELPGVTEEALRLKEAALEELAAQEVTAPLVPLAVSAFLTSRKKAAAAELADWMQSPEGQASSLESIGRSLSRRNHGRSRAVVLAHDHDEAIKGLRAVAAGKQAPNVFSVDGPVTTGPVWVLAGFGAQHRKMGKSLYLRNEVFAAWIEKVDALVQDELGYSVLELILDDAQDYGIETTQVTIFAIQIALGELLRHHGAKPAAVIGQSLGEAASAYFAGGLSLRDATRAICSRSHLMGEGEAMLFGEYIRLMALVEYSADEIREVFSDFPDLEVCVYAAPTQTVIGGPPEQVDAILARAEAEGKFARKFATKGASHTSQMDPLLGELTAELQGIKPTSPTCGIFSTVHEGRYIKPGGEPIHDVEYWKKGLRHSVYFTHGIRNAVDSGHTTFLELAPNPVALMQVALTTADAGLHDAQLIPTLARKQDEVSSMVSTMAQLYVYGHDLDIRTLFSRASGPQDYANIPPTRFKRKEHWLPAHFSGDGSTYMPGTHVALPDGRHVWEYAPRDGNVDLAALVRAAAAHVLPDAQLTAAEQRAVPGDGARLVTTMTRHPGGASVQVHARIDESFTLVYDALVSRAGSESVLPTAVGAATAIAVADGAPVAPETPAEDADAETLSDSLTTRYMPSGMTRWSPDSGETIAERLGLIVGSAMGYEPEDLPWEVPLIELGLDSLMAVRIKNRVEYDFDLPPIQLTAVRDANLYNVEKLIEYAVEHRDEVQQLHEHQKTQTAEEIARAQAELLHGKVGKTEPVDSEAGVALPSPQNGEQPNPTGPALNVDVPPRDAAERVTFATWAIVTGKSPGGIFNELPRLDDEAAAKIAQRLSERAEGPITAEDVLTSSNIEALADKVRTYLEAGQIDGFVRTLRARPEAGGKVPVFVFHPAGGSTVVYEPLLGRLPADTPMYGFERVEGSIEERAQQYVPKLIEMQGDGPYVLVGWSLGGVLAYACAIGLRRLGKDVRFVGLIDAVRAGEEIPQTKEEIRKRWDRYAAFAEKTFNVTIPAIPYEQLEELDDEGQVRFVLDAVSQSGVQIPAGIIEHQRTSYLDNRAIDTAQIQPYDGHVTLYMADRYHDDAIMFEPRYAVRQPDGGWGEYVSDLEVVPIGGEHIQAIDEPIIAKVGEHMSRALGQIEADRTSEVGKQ

Leishmania in macrophages: 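Cell assay of Leishmania donovani living inside macrophages; the read-out is not stated. Concentration: 30 µM. Higher reads as stronger inhibition (inferred: compounds with an IC50 in retests scored well above the rest). Size under these conditions: about 69,000 compounds, about 1,000 of them at 50% or above in at least one test.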
Toxoplasma: 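Assay of Toxoplasma gondii numbers, read through their beta-galactosidase reporter with a colour substrate. Compounds at 10 µM. Higher reads as fewer parasites (inferred from which compounds were picked for retests). About 67,000 compounds were tested under these conditions; 0.38% (about 260) showed 50% or more at least once.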
ClpP1P2: 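ClpP1P2, Mycobacterium tuberculosis (UniProt P9WPC5 and UniProt P9WPC3). Protease assay of ClpP1P2, read by the AMC dye that it sets free. Tested at 50 µM. Higher reads as stronger inhibition, judged from the few compounds that gave an IC50. Most other retested compounds had strongly negative values. Of about 69,000 compounds tested this way, about 10 (0.015%) reached 50% or more in at least one test.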
T. brucei: 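Whole-parasite assay of Trypanosoma brucei over 72 hours; the read-out is not stated. Tested at 30 µM. The record gives no direction; compounds that gave an IC50 in retests scored well above the rest, so higher reads as stronger inhibition. Values scatter widely below zero; nearly all retest evidence comes from the higher of the two concentrations used. About 64,000 compounds were tested under these conditions; 1.5% (about 940) showed 50% or more at least once.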
Pks13 thioesterase: 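Polyketide synthase Pks13, Mycobacterium tuberculosis (UniProt I6X8D2). Enzyme assay of the thioesterase domain of polyketide synthase 13; the read-out is not stated. Tested at 30 µM. Higher reads as stronger inhibition (inferred from which compounds were picked for retests). Size under these conditions: about 67,000 compounds, about 300 of them at 50% or above in at least one test.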

Values are the deposited “Percent Effect”, in %. The controls that fix the scale are not given in the record; negative values are as filed. The compounds are a random part of those screened. Two or more numbers in one place are separate tests of the same structure; such repeats can differ widely.

{"structure": "CCn1nc(C(C)C)cc1C(=O)N1CC(OCc2ccccc2F)C1", "Leishmania in macrophages": 20.4, "Toxoplasma": 2.133, "ClpP1P2": -6.77, "T. brucei": 10.94, "Pks13 thioesterase": -11.76}
{"structure": "CN(CC(N)=O)C(=O)c1cn(-c2ccc(Br)cc2)cn1", "Leishmania in macrophages": -20.48, "Toxoplasma": 10.22, "ClpP1P2": -11.7, "T. brucei": -9.45, "Pks13 thioesterase": -16.03}
{"structure": "Cc1ccc(Nc2nccc(C3CCN(CC(N)=O)C3)n2)nc1", "stereo": "stereo unspecified", "Leishmania in macrophages": "26.45 & 11.55", "Toxoplasma": -4.358, "ClpP1P2": -4.046, "T. brucei": -50.23, "Pks13 thioesterase": -9.492}
{"structure": "CN(Cc1ccc2nsnc2c1)CC1(O)CCNC1", "stereo": "stereo unspecified", "Leishmania in macrophages": 15.16, "Toxoplasma": 12.98, "ClpP1P2": -0.3645, "T. brucei": 13.33, "Pks13 thioesterase": -15.61}
{"structure": "O=C(Cc1ccsc1)N1CCC(c2noc(-c3ccncc3)n2)CC1", "Leishmania in macrophages": "-8.607 & -5.595", "Toxoplasma": -33.44, "ClpP1P2": 5.439, "T. brucei": -31.26, "Pks13 thioesterase": -11.66}
{"structure": "Cc1cccc(N2CCC(N3CCC4(CCCNC4=O)C3)CC2)c1C", "stereo": "stereo unspecified", "Leishmania in macrophages": 13.24, "Toxoplasma": 7.579, "ClpP1P2": 8.915, "T. brucei": -29.36, "Pks13 thioesterase": -17.92}
{"structure": "COc1ncccc1CN1Cc2nnn(C)c2C(COCC2CC2)C1", "stereo": "stereo unspecified", "ClpP1P2": -23.09, "Pks13 thioesterase": -2.566}
{"structure": "O=C(Cc1cccc(F)c1)N1CCc2ncnc(NC3CCC3)c2CC1", "Leishmania in macrophages": 34.15, "Toxoplasma": -8.105, "ClpP1P2": -7.577, "T. brucei": -72.72, "Pks13 thioesterase": -11.89}
{"structure": "COc1ccc(C(C)NC(=O)Cn2ccc(=O)n(C)c2=O)cc1OC", "stereo": "stereo unspecified", "Leishmania in macrophages": 20.66, "Toxoplasma": 8.12, "ClpP1P2": 1.351, "T. brucei": 4.053, "Pks13 thioesterase": -4.245}
{"structure": "CC(=O)N1CCN(Cc2ccc(C)o2)CC2(CC(=O)N(C)C2)C1.O=C(O)C(F)(F)F", "stereo": "stereo unspecified", "Leishmania in macrophages": 15.71, "Toxoplasma": -27.45, "T. brucei": -74.67}
{"structure": "O=C(NCC1CC1)[C@H]1C[C@@H]2CCN(CCc3ccccc3)C[C@H]2O1", "ClpP1P2": -5.529, "Pks13 thioesterase": -4.856}
{"structure": "Cc1ccccc1C(=O)N1CCOCC1CN(C)C.O=CO", "stereo": "stereo unspecified", "Leishmania in macrophages": 38.28, "Toxoplasma": 0.1357, "T. brucei": 13.8}
{"structure": "Cc1nc2cc(O)nn2c(C)c1CCC(=O)NCCc1ccccc1", "Leishmania in macrophages": -28.05, "Toxoplasma": -3.106, "ClpP1P2": -10.48, "T. brucei": -19.22, "Pks13 thioesterase": 24.81}
{"structure": "COc1ccc(CN2CC[C@H](c3nnc(-c4ccco4)o3)C2)cc1", "Leishmania in macrophages": -7.104, "Toxoplasma": -5.907, "ClpP1P2": 8.702, "T. brucei": -44.51}
{"structure": "CC(C)c1cc(C(=O)NCCN2CCCS2(=O)=O)n[nH]1", "Leishmania in macrophages": 21.01, "Toxoplasma": -6.541, "ClpP1P2": 17.44, "T. brucei": -8.384, "Pks13 thioesterase": -3.88}
{"structure": "CCc1cc(N2CCC(Nc3ccc4nnc(C)n4n3)CC2)ncn1", "Leishmania in macrophages": 21.74, "Toxoplasma": 7.865, "ClpP1P2": 0.2749, "T. brucei": 0.1868, "Pks13 thioesterase": -14.39}
{"structure": "O=C(c1ccc(C2CCCO2)s1)N1CCOCC1", "stereo": "stereo unspecified", "Leishmania in macrophages": 11.39, "Toxoplasma": 5.623, "ClpP1P2": 13.29, "T. brucei": -11.64, "Pks13 thioesterase": -27.09}
{"structure": "Cc1csc(CN(CC2CCCO2)C(=O)c2cccnc2C)n1", "stereo": "stereo unspecified", "Leishmania in macrophages": -12.87, "Toxoplasma": -10.16, "ClpP1P2": 5.125, "T. brucei": -16.85, "Pks13 thioesterase": 1.794}
{"structure": "CN(CC(=O)N1CCC(Oc2ccccc2)CC1)c1cnccn1", "Leishmania in macrophages": 20.64, "Toxoplasma": -0.7539, "ClpP1P2": 10.64, "T. brucei": 28.43, "Pks13 thioesterase": 10.36}
{"structure": "Cc1cc(C)n(CC(=O)N2CCC(NS(C)(=O)=O)CC2)n1", "Leishmania in macrophages": 22.11, "Toxoplasma": -17.5, "ClpP1P2": 9.656, "T. brucei": -19.18, "Pks13 thioesterase": -10.11}
{"structure": "[H][C@]12CCCCN1CCC[C@H]2CN(C)Cc1cnn(-c2ccccc2C)c1", "Leishmania in macrophages": 37.99, "Toxoplasma": -14.85, "T. brucei": -42.06}
{"structure": "CNC(=O)C(C)(C)N1CCC[C@H]1C(=O)NCCN(C)C.Cl", "Leishmania in macrophages": -1.947, "Toxoplasma": 2.651, "T. brucei": -6.095}
{"structure": "Cn1ccc(NC(=O)Cc2ccccc2F)n1", "Leishmania in macrophages": -10.05, "Toxoplasma": 14.31, "ClpP1P2": 2.332, "T. brucei": -73.11, "Pks13 thioesterase": -19.78}
{"structure": "Cn1c(CN2CCCC2c2noc(C3CC3)n2)cc(=O)n(C)c1=O", "stereo": "stereo unspecified", "Leishmania in macrophages": -59.55, "Toxoplasma": 9.454, "ClpP1P2": -3.888, "T. brucei": -4.745, "Pks13 thioesterase": -5.652}

The first 2 entries again:

structure	Leishmania in macrophages	Toxoplasma	ClpP1P2	T. brucei	Pks13 thioesterase
CCn1nc(C(C)C)cc1C(=O)N1CC(OCc2ccccc2F)C1	20.4	2.133	-6.77	10.94	-11.76
CN(CC(N)=O)C(=O)c1cn(-c2ccc(Br)cc2)cn1	-20.48	10.22	-11.7	-9.45	-16.03